Consider six molecules from PMC7532188.

Amino acid sequences for entries named in this document (tags omitted). A change or cut given only in a name is not applied to a line headed by its entry.
UniProt Q9UK61: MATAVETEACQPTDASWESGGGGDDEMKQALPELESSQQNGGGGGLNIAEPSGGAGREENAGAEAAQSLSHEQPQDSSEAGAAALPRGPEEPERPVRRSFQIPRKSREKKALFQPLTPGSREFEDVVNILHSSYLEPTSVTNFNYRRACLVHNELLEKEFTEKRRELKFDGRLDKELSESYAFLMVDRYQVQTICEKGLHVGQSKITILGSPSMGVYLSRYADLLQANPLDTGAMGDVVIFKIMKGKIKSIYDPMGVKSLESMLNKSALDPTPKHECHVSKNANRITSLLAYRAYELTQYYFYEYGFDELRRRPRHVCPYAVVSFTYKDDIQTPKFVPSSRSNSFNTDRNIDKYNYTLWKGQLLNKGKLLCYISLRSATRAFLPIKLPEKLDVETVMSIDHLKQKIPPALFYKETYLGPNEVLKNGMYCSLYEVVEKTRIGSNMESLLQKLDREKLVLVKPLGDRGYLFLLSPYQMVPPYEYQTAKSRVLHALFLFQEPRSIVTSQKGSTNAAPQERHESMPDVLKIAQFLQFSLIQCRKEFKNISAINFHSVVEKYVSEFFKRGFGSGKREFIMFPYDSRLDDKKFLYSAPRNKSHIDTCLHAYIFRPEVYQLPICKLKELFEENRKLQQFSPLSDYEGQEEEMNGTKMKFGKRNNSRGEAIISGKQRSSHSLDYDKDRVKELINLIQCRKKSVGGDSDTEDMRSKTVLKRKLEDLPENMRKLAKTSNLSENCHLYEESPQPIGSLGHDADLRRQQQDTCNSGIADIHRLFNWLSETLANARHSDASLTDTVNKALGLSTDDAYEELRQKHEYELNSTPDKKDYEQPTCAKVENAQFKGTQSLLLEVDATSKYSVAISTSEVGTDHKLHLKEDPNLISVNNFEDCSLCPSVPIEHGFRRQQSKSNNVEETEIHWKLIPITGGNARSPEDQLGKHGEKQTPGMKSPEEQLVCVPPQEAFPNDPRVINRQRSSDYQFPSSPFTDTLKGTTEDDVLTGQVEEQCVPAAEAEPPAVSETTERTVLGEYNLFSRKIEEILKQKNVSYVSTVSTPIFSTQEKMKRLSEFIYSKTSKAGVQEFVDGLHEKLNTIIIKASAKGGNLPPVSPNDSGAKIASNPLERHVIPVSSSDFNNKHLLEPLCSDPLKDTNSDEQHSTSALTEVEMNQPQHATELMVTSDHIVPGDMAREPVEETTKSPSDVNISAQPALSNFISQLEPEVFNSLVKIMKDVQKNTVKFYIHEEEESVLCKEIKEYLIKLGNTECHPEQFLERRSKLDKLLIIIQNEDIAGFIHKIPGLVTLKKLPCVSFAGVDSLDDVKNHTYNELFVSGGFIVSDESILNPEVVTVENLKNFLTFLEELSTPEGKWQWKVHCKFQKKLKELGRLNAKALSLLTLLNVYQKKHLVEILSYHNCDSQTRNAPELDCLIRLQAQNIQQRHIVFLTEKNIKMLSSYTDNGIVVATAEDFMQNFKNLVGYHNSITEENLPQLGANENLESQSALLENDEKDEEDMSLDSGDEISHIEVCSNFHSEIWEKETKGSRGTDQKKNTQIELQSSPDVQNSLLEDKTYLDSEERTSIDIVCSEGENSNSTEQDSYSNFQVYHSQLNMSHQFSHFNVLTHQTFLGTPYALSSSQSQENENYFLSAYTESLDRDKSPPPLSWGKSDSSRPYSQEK
UniProt Q5VUA4: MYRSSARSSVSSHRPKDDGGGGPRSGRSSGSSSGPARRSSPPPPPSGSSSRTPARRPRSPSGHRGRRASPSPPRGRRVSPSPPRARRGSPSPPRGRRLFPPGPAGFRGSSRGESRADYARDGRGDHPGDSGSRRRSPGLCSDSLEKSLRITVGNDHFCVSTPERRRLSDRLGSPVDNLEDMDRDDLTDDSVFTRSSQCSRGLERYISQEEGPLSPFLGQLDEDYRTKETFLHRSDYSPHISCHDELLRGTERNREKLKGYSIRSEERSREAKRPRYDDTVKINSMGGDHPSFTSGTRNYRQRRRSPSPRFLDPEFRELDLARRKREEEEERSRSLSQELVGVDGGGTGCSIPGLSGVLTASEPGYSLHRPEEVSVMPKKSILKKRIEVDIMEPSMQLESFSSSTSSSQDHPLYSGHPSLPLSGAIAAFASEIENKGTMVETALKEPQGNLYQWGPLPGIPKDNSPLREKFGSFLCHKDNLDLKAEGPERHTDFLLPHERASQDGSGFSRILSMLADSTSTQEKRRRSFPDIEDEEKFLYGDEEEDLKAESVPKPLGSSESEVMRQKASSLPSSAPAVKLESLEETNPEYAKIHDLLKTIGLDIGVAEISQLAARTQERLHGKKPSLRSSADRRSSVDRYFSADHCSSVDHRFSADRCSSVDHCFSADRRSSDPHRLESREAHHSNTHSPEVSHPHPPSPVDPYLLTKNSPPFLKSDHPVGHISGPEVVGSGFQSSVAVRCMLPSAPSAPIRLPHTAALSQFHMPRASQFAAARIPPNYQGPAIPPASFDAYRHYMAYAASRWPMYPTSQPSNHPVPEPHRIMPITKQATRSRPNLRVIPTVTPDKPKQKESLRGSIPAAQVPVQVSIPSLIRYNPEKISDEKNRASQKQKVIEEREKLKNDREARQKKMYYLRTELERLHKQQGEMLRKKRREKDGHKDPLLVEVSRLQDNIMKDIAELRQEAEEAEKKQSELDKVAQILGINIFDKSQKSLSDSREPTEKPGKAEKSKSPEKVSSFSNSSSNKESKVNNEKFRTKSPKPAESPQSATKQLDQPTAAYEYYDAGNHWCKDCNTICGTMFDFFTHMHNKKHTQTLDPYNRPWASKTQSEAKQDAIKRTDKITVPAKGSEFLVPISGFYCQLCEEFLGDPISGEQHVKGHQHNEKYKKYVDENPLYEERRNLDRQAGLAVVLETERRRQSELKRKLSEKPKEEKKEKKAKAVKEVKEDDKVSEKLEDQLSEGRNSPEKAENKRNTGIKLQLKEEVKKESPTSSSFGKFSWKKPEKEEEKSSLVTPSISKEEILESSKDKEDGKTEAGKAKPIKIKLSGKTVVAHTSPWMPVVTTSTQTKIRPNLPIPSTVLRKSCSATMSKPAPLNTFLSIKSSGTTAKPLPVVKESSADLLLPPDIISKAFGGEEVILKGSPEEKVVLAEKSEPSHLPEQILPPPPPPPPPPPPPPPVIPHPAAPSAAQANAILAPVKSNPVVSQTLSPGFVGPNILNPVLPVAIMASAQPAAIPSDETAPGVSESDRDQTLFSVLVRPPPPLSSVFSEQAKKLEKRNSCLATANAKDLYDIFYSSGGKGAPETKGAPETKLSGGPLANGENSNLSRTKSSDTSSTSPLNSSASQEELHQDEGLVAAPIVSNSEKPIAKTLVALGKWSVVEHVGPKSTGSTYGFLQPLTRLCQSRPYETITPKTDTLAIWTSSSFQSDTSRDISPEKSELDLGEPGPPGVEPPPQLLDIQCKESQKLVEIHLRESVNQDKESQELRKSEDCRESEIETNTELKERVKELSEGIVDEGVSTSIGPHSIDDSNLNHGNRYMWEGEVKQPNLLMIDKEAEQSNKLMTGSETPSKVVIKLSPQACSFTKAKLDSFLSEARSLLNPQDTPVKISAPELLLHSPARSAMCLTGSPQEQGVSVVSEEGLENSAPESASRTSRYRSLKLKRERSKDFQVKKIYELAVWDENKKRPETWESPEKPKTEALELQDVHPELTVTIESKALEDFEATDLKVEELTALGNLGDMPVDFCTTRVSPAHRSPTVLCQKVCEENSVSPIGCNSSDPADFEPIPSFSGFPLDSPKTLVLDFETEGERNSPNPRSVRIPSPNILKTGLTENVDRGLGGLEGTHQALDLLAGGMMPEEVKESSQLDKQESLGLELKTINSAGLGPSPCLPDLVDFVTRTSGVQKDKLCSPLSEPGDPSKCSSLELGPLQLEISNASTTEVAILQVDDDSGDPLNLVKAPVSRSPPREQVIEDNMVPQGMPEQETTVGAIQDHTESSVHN
UniProt Q14966: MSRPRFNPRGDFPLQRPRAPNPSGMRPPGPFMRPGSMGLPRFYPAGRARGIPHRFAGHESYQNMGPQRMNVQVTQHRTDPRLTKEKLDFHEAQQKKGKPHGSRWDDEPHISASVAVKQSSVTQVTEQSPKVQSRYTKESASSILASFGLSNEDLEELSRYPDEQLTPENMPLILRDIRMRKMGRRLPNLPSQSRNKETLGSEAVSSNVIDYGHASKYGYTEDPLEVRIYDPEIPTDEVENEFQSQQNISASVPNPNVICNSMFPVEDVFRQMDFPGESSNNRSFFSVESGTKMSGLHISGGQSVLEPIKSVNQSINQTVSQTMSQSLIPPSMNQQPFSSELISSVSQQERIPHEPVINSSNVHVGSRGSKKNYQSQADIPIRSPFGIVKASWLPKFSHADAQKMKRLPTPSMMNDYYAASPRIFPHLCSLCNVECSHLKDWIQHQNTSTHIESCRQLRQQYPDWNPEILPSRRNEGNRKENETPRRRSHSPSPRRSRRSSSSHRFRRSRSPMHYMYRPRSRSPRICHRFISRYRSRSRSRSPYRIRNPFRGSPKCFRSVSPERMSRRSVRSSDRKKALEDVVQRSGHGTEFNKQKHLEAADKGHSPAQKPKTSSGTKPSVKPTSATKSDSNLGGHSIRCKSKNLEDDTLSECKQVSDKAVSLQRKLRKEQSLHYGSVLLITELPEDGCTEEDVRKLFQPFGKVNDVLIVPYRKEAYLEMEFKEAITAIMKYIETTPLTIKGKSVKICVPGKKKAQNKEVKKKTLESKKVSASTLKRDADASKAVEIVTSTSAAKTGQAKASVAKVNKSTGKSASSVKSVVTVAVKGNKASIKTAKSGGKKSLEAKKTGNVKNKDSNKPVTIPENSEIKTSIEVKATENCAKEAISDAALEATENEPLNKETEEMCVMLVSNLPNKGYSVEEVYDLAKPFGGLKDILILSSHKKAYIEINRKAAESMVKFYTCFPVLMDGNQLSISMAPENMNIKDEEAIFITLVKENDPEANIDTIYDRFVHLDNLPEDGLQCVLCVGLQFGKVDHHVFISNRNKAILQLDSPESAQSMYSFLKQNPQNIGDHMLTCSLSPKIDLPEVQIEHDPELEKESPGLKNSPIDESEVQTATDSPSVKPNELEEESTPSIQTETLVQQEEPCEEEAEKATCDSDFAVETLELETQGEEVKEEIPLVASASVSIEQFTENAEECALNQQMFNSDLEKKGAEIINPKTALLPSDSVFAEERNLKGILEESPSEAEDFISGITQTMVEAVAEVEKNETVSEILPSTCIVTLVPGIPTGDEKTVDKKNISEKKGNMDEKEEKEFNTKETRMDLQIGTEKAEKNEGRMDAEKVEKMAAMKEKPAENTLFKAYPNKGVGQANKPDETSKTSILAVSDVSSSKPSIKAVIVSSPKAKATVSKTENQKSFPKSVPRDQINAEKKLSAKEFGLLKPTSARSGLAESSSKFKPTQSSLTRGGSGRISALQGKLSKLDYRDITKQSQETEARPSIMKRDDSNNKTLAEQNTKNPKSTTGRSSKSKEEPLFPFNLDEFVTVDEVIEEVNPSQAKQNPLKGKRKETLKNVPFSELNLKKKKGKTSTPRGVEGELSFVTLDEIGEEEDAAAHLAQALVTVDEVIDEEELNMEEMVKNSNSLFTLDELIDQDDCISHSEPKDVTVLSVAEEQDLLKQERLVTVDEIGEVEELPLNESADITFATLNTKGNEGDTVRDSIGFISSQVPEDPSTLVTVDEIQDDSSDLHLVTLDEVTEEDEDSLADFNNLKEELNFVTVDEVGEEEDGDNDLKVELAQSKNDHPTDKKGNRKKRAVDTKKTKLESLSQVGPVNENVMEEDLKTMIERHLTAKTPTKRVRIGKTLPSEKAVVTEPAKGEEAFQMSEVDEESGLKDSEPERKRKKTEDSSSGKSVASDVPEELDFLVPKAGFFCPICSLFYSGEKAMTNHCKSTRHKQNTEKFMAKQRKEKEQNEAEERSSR

Assay in all cases: proximity labelling; BioID: HA-BirA-tagged TASOR variants in TASOR knockout cells, 50 μM biotin for 18 h, nuclei lysed, streptavidin beads, mass spectrometry; control: TASOR knockout cells with biotin but without BirA-tagged TASOR
In assay [1] the target is HA-BirA-TASOR Y305A (human) (UniProt Q9UK61).
Assay [2] deals with HA-BirA-TASOR, full-length (human) (UniProt Q9UK61).
The target of assay [3] is HA-BirA-TASOR ΔPARP (human).

No constants are given. Whether binding was seen depends on the method and setting. Binding seen in cells or lysates may run through a third protein. These calls come from enrichment with a bait or labelling near it, and not all partners need be listed.

As for “endogenous MPP8 (from UniProt Q99549-1 1-860)”, the binding result in assay [1] and in assay [2] was “binds” each time.

As to ZNF318 (from UniProt Q5VUA4 1-2279), the binding result in assay [1] and in assay [2] was “binds” in each case.

On to “ZNF638 (NP220) (from UniProt Q14966 1-1978)”, for which the binding entry in assay [1] and in assay [2] was “binds” throughout.

B1: FIP1L1 (protein, UniProt Q6UN15 1-594)
chain: MSAGEVERLVSELSGGTGGDEEEEWLYGGPWDVHVHSDLAKDLDENEVERPEEENASANPPSGIEDETAENGVPKPKVTETEDDSDSDSDDDEDDVHVTIGDIKTGAPQYGSYGTAPVNLNIKTGGRVYGTTGTKVKGVDLDAPGSINGVPLLEVDLDSFEDKPWRKPGADLSDYFNYGFNEDTWKAYCEKQKRIRMGLEVIPVTSTTNKITAEDCTMEVTPGAEIQDGRFNLFKVQQGRTGNSEKETALPSTKAEFTSPPSLFKTGLPPSRNSTSSQSQTSTASRKANSSVGKWQDRYGRAESPDLRRLPGAIDVIGQTITISRVEGRRRANENSNIQVLSERSATEVDNNFSKPPPFFPPGAPPTHLPPPPFLPPPPTVSTAPPLIPPPGFPPPPGAPPPSLIPTIESGHSSGYDSRSARAFPYGNVAFPHLPGSAPSWPSLVDTSKQWDYYARREKDRDRERDRDRERDRDRDRERERTRERERERDHSPTPSVFNSDEERYRYREYAERGYERHRASREKEERHRERRHREKEETRHKSSRSNSRRRHESEEGDSHRRHKHKKSKRSKEGKEAGSEPAPEQESTEATPAE
In the case of B1, the binding result in assay [1], in assay [3] and in assay [2] was “binds” in each case.

B2: CCNK (protein, UniProt O75909 1-580)
chain: MKENKENSSPSVTSANLDHTKPCWYWDKKDLAHTPSQLEGLDPATEARYRREGARFIFDVGTRLGLHYDTLATGIIYFHRFYMFHSFKQFPRYVTGACCLFLAGKVEETPKKCKDIIKTARSLLNDVQFGQFGDDPKEEVMVLERILLQTIKFDLQVEHPYQFLLKYAKQLKGDKNKIQKLVQMAWTFVNDSLCTTLSLQWEPEIIAVAVMYLAGRLCKFEIQEWTSKPMYRRWWEQFVQDVPVDVLEDICHQILDLYSQGKQQMPHHTPHQLQQPPSLQPTPQVPQVQQSQPSQSSEPSQPQQKDPQQPAQQQQPAQQPKKPSPQPSSPRQVKRAVVVSPKEENKAAEPPPPKIPKIETTHPPLPPAHPPPDRKPPLAAALGEAEPPGPVDATDLPKVQIPPPAHPAPVHQPPPLPHRPPPPPPSSYMTGMSTTSSYMSGEGYQSLQSMMKTEGPSYGALPPAYGPPAHLPYHPHVYPPNPPPPPVPPPPASFPPPAIPPPTPGYPPPPPTYNPNFPPPPPRLPPTHAVPPHPPPGLGLPPASYPPPAVPPGGQPPVPPPIPPPGMPPVGGLGRAAWMR
For B2, the binding result in assay [1], in assay [3] and in assay [2] was “binds” in each case.

B3: MED19 (protein, UniProt A0JLT2 1-244)
chain: MENFTALFGAQADPPPPPTALGFGPGKPPPPPPPPAGGGPGTAPPPTAATAPPGADKSGAGCGPFYLMRELPGSTELTGSTNLITHYNLEQAYNKFCGKKVKEKLSNFLPDLPGMIDLPGSHDNSSLRSLIEKPPILSSSFNPITGTMLAGFRLHTGPLPEQCRLMHIQPPKKKNKHKHKQSRTQDPVPPETPSDSDHKKKKKKKEEDPDRKRKKKEKKKKKNRHSPDHPGMGSSQASSSSSLR
With B3, the binding entry in assay [1], in assay [3] and in assay [2] was “binds” each time.
